From PubChem BioAssay AID330 (DTP/NCI, 2004)
The list shows only some results of the screen, not a fair sample: it is rich in T/C values a quarter to a half above the control, in often repeated tests (any T/C) and in doses without a T/C. Other doses and runs of a compound stand elsewhere. T/C is the treated group as % of the vehicle group. Some doses have a count of surviving animals in place of a T/C: the source holds a T/C of zero for them, seemingly a mark for toxic or unscored doses. Some doses without a T/C left all or most animals alive at the check, yet need not have been tolerated: the source hardly ever lists a survival T/C far under the control, and the zero likely stands for such cases as well. Survivors were counted at the toxicity check, usually on the fifth day, unless a day is given; later deaths do not show. Schedule codes are those of the source, taken here to give the interval after Q, in days (D) or hours (H), and the number of doses after X. Some doses were run more than once; their values stand side by side, smallest first. For survival time, the PubChem record calls one and a half times the control and up active, and a quarter to a half above the control has no call in these data; cut-offs in other NCI protocols can differ. Signs of the kind (2×) stand for listed records that agree. Some T/C values carry the count of animals alive at the toxicity check (mostly the fifth day); where none is given, no animal had died by that day.

Test system: P388 leukemia ip, CD2F1 mice, survival T/C
Experiment: NCI In Vivo Anticancer Drug Screen. Data for tumor model P388 Leukemia (intraperitoneal) in CD2F1 (CDF1) mice
Conditions: T/C endpoint: median survival time, higher T/C = longer survival
[1] = dose: 200.0 mg/kg/injection, schedule: Q01DX009 (ip), vehicle: Klucel (hydroxypropylcellulose) (HPC)
[2] = dose: 200.0 mg/kg/injection, schedule: Q01DX005 (ip), vehicle: saline with Tween-80
[3] = dose: 200.0 mg/kg/injection, schedule: Q01DX005 (ip), vehicle: Klucel (hydroxypropylcellulose) (HPC)
[4] = dose: 200.0 mg/kg/injection, schedule: Q01DX009 (ip), vehicle: saline with Tween-80
[5] = dose: 25.0 mg/kg/injection, schedule: Q01DX009 (ip), vehicle: saline with Tween-80
[6] = dose: 50.0 mg/kg/injection, schedule: Q01DX009 (ip), vehicle: saline with Tween-80
[7] = dose: 100.0 mg/kg/injection, schedule: Q01DX009 (ip), vehicle: saline with Tween-80

In the case of COc1cc(OC)c(NC(=O)CC2SC(N)=NC2=O)cc1Cl (centres undefined), the survivor count [1] is reported as 5 of 6.

C1CCC(CCCCc2nn[nH]n2)CC1 was tested, and the survivor count [2] was 2 of 5.

Nc1cccc(NCc2ccccn2)n1 was tested, and the survivor count [3] was 0 of 6.

CCS/C(C#N)=C/c1ccccc1Cl was tested, and the survivor count [4] was 1 of 6.

With COC(=O)C1c2cc3c(c(O)c2C(O)CC1(C)O)C(=O)c1c(O)cc2c(c1C3=O)OC1OC2(C)C(O)C(N(C)C)C1O (centres undefined) the survivor count (dose: 400.0 mg/kg/injection, schedule: Q01DX010 (ip), vehicle: saline) was 0 of 6.

For Cc1cc(O)c(C=O)c2c1C(=O)Oc1c(CO)c(O)c3c(c1O2)C(O)OC3=O (centres undefined), the T/C [5] was 129 % of control (2×), the T/C [6] was 131 % of control and the survivor count [7] was 0 of 6 and 1 of 6. For the same compound, the survivor count [4] was 0 of 6.

In the case of COC(=O)C1=C(C)NC(C)=C(C(=O)OC)C(N2C(=O)CCC2=O)C1 (centres undefined), the survivor count (dose: 12.5 mg/kg/injection, schedule: Q01DX009 (ip), vehicle: saline with Tween-80) is reported as 6 of 6, the survivor count [5] is reported as 6 of 6 and the survivor count [6] is reported as 6 of 6. The survivor count [7] was 6 of 6.

In the case of [CH3][Sn]1([CH3])[O]C(=O)CC(CC(=O)O)C(=O)[O]1 (centres undefined), the survivor count (dose: 100.0 mg/kg/injection, schedule: Q01DX005 (ip), vehicle: Klucel (hydroxypropylcellulose) (HPC)) is reported as 1 of 5 and the survivor count [3] is reported as 0 of 5.

For CC(C)=CC1CC(=O)OC1(C)C (centres undefined), the survivor count (dose: 100.0 mg/kg/injection, schedule: Q04DX002 (ip), vehicle: saline with Tween-80) was 2 of 6, the survivor count (dose: 200.0 mg/kg/injection, schedule: Q04DX002 (ip), vehicle: saline with Tween-80) was 1 of 6 and the survivor count (dose: 400.0 mg/kg/injection, schedule: Q04DX002 (ip), vehicle: saline with Tween-80) was 0 of 6.

In the case of Nc1nc(C(Br)Br)c([N+](=O)[O-])c(=O)[nH]1, the T/C (dose: 50.0 mg/kg/injection, schedule: Q01DX005 (ip), vehicle: saline with Tween-80) is reported as 134 % of control [4 of 5 alive], the survivor count (dose: 100.0 mg/kg/injection, schedule: Q01DX005 (ip), vehicle: saline with Tween-80) is reported as 0 of 3 and 0 of 5 and the survivor count [2] is reported as 0 of 5.

In the case of C/C=C(\CCNCCCC)[Si](C)(C)C, the survivor count (dose: 400.0 mg/kg/injection, schedule: Q04DX002 (ip), vehicle: saline) is reported as 0 of 6.

In the case of CCC(O)C1(OC)C=CC(OC)O1 (centres undefined), the survivor count (dose: 50.0 mg/kg/injection, schedule: Q01DX005 (ip), vehicle: saline) is reported as 0 of 6, the survivor count (dose: 100.0 mg/kg/injection, schedule: Q01DX005 (ip), vehicle: saline) is reported as 0 of 6 and the survivor count (dose: 200.0 mg/kg/injection, schedule: Q01DX005 (ip), vehicle: saline) is reported as 0 of 6.

FC(F)(F)C1=C(C(F)(F)F)SP23(OCCC(CO2)O3)S1 (centres undefined) was tested, and the T/C (dose: 50.0 mg/kg/injection, schedule: Q01DX009 (ip), vehicle: Klucel (hydroxypropylcellulose) (HPC)) was 130 % of control, the T/C (dose: 100.0 mg/kg/injection, schedule: Q01DX009 (ip), vehicle: Klucel (hydroxypropylcellulose) (HPC)) was 130 % of control and the survivor count [1] was 1 of 6.

O=C1N(Cl)C2(c3ccccc3)N(Cl)C(=O)N(Cl)C2(c2ccccc2)N1Cl (centres undefined) was tested, and the survivor count (dose: 100.0 mg/kg/injection, schedule: Q04DX003 (ip), vehicle: Klucel (hydroxypropylcellulose) (HPC)) was 1 of 6 and 2 of 6, the survivor count (dose: 200.0 mg/kg/injection, schedule: Q04DX003 (ip), vehicle: Klucel (hydroxypropylcellulose) (HPC)) was 1 of 6 and the survivor count (dose: 400.0 mg/kg/injection, schedule: Q04DX003 (ip), vehicle: Klucel (hydroxypropylcellulose) (HPC)) was 1 of 6.

In the case of O=C(CCl)c1ccc(Cl)c(Cl)c1, the survivor count (dose: 400.0 mg/kg/injection, schedule: Q01DX001 (ip), vehicle: other) is reported as 3 of 6.

COC(=O)C1C2c3ccccc3C(C1C(=O)OC)[n+]1ccccc12 (centres undefined) was tested, and the survivor count [3] was 3 of 6.

With CC(=O)NCCc1nc(-c2nc(C(=O)O)cs2)cs1 the survivor count (dose: 200.0 mg/kg/injection, schedule: Q01DX009 (ip), vehicle: distilled water + Tween-80) was 6 of 6.
